Data source: PubChem BioAssay AID1259254 (NCATS, 2017)

Purpose: 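Gene knock-downs that lead to re-replication, shown by excess G2 DNA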 (primary screen)
Cell system: human HCT116 colorectal cancer cells
Knock-down reagent: single siRNA against human genes
Timing: 3 days
Measurement: 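Imaged Hoechst DNA stain sorts each cell into a cycle phase by DNA amount; per plate, G2 fraction set to 0% for non-targeting and 100% for GMNN siRNA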
Scale: G2 robust z-score and G2 cells, % of GMNN control: higher = more G2 cells, more excess DNA replication; raw share of cells in G2: higher = larger share of cells with G2 DNA content
Hit rule: 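An siRNA counts as active if its G2 robust z-score lies at least 5 MADs above the screen median; here such calls match roughly 38% of GMNN control or more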
This is one part, drawn at random, of about 59,000 reagents tested. Of all reagents, about 1,550 (2.6%) were called active. 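G2 share is only a proxy for re-replication; each gene was hit by three separate siRNAs, and active genes were retested.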 The raw values are shown without normalisation. The numbers tell different reagents against one gene apart. Not stated in the record: the amount of reagent.

gene	reagent	G2 robust z-score	G2 cells, % of GMNN control	raw share of cells in G2 (%)	Call
PLXNA4	1	0.0803	3.53	5.58	inactive
PLXNA4	2	-0.0609	2.54	3.8	inactive
PLXNA4	3	1.7	14.9	7.65	inactive
SRP54	1	2.39	19.8	12.3	inactive
SRP54	2	1.31	12.2	8.72	inactive
SRP54	3	3.61	28.4	13.4	inactive
ZNF331	1	-0.67	-1.75	2.18	inactive
ZNF331	2	1.21	11.5	11.1	inactive
ZNF331	3	0.102	3.69	4.79	inactive
PPP1R15B	1	1.9	16.4	10.7	inactive
PPP1R15B	2	-0.377	0.314	5.1	inactive
PPP1R15B	3	2.85	23	16.3	inactive
R3HDM2	1	7.94	58.9	28.1	active
R3HDM2	2	1.82	15.8	10.7	inactive
R3HDM2	3	-0.401	0.149	3.23	inactive
LRP10	1	-0.847	-3	3.01	inactive
LRP10	2	0.746	8.22	9.89	inactive
LRP10	3	0.0378	3.23	5.26	inactive
YIPF3	1	4.88	37.3	18.4	inactive
YIPF3	2	-0.235	1.32	4.51	inactive
YIPF3	3	-0.525	-0.73	3.04	inactive
ZNF630	1	-0.744	-2.27	1.99	inactive
ZNF630	2	-0.375	0.332	6.06	inactive
ZNF630	3	-0.427	-0.0345	3.62	inactive
ZNF367	1	-0.156	1.87	3.73	inactive
ZNF367	2	0.774	8.41	6.09	inactive
ZNF367	3	-0.705	-1.99	2.83	inactive

Continued, starting with the last 7 of the part before.
gene	reagent	G2 robust z-score	G2 cells, % of GMNN control	raw share of cells in G2 (%)	Call
YIPF3	3	-0.525	-0.73	3.04	inactive
ZNF630	1	-0.744	-2.27	1.99	inactive
ZNF630	2	-0.375	0.332	6.06	inactive
ZNF630	3	-0.427	-0.0345	3.62	inactive
ZNF367	1	-0.156	1.87	3.73	inactive
ZNF367	2	0.774	8.41	6.09	inactive
ZNF367	3	-0.705	-1.99	2.83	inactive
SLC36A1	1	1.3	12.1	7.96	inactive
SLC36A1	2	1.01	10	6.57	inactive
SLC36A1	3	1.77	15.4	8.12	inactive
NMU	1	1.72	15.1	10.9	inactive
NMU	2	0.391	5.72	6.5	inactive
NMU	3	0.754	8.27	6.27	inactive
SLC37A3	1	0.463	6.23	7.09	inactive
SLC37A3	2	0.875	9.12	9.23	inactive
SLC37A3	3	-0.549	-0.894	3.87	inactive
P2RY4	1	-0.647	-1.58	5.28	inactive
P2RY4	2	-1.25	-5.84	2.47	inactive
P2RY4	3	-0.284	0.972	3.57	inactive
MMGT1	1	-0.465	-0.303	3.97	inactive
MMGT1	2	-0.546	-0.873	3.07	inactive
MMGT1	3	-0.912	-3.45	0.811	inactive
LAMC1	1	0.256	4.77	5.35	inactive
LAMC1	2	-0.69	-1.89	3.96	inactive
LAMC1	3	2.33	19.4	10.1	inactive
CDCA7	1	-0.0628	2.53	4.95	inactive
CDCA7	2	3.61	28.3	11.9	inactive
CDCA7	3	-1.05	-4.4	1.07	inactive
EFL1	1	-0.0673	2.49	6.47	inactive
EFL1	2	-0.151	1.9	4.88	inactive
EFL1	3	2.76	22.4	13.1	inactive
SNAP23	1	0.753	8.27	6.28	inactive
SNAP23	2	-0.542	-0.845	5.61	inactive
SNAP23	3	1.49	13.5	8.98	inactive
MPL	1	1.74	15.2	8.2	inactive
MPL	2	0.89	9.23	9.13	inactive
MPL	3	-0.127	2.07	6.16	inactive
PCDH10	1	4.46	34.3	19.9	inactive
PCDH10	2	0.904	9.33	7.65	inactive
PCDH10	3	0.431	6	6.4	inactive
CS	1	-1.01	-4.16	2.66	inactive
CS	2	-0.125	2.09	5.71	inactive
CS	3	-1.27	-5.95	2.82	inactive
ROBO3	1	0.32	5.22	6.12	inactive
ROBO3	2	-1.3	-6.18	3.09	inactive
ROBO3	3	0.112	3.75	5.67	inactive
OR3A4P	1	-0.978	-3.91	1.96	inactive
OR3A4P	2	-0.658	-1.66	4.1	inactive
OR3A4P	3	-0.669	-1.74	3.18	inactive
